Results are given in words; binding and its absence hold for the method and conditions named. Binding seen in cells or lysates may run through a third protein. Here binding means that the protein was enriched with, or labelled near, the bait; the list need not be complete.

The chains behind the UniProt entries cited, without tags or fusion partners.
UniProt Q12873: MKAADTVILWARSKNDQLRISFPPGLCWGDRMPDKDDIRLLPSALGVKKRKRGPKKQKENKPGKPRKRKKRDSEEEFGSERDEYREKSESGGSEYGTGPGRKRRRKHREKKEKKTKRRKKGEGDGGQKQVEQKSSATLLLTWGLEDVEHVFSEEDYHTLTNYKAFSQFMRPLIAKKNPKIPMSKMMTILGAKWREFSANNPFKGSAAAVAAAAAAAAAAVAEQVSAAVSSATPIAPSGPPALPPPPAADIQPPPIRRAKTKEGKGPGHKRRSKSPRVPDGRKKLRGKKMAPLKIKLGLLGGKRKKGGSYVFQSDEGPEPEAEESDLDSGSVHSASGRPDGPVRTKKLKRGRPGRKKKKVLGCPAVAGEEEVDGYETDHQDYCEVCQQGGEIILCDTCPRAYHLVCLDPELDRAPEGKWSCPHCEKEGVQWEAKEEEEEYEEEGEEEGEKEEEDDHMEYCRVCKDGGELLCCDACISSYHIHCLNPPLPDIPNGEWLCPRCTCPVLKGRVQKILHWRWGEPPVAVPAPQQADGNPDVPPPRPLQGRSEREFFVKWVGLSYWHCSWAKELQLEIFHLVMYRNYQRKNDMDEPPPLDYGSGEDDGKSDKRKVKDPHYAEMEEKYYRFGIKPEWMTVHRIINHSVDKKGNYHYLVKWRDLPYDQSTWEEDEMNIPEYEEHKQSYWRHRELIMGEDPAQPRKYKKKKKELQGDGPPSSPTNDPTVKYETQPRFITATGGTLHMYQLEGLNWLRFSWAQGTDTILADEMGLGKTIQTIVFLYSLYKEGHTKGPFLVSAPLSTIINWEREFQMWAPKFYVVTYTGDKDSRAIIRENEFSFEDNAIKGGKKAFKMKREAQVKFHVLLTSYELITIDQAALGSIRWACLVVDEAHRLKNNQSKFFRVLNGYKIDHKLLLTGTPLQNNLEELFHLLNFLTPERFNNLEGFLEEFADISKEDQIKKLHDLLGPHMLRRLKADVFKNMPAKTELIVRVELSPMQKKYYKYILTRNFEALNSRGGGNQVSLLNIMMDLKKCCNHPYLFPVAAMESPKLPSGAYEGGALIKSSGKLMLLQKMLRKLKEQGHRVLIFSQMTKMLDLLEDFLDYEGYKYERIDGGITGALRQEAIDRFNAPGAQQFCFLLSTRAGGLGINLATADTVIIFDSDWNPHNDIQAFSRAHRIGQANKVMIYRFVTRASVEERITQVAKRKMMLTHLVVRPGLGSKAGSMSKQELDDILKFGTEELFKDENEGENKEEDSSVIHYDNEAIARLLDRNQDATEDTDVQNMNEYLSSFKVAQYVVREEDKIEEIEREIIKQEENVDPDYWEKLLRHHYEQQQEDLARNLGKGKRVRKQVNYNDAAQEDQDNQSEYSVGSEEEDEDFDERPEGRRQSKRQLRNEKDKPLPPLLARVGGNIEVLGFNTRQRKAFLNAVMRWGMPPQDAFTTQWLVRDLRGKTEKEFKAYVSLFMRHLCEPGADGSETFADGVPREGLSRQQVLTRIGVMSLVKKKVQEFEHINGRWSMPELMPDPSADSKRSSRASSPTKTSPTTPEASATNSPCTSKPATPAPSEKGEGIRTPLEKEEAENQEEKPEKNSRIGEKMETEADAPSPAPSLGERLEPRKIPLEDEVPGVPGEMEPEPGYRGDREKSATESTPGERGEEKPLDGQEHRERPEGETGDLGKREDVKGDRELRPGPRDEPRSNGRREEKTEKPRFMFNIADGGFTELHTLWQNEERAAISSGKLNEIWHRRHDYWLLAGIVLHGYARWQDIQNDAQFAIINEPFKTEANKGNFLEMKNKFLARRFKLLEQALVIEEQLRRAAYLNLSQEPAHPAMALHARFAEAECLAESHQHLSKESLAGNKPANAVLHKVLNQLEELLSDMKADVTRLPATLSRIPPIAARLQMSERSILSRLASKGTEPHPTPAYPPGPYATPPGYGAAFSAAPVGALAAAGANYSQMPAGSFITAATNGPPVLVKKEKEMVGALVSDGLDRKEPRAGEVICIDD
UniProt Q14839: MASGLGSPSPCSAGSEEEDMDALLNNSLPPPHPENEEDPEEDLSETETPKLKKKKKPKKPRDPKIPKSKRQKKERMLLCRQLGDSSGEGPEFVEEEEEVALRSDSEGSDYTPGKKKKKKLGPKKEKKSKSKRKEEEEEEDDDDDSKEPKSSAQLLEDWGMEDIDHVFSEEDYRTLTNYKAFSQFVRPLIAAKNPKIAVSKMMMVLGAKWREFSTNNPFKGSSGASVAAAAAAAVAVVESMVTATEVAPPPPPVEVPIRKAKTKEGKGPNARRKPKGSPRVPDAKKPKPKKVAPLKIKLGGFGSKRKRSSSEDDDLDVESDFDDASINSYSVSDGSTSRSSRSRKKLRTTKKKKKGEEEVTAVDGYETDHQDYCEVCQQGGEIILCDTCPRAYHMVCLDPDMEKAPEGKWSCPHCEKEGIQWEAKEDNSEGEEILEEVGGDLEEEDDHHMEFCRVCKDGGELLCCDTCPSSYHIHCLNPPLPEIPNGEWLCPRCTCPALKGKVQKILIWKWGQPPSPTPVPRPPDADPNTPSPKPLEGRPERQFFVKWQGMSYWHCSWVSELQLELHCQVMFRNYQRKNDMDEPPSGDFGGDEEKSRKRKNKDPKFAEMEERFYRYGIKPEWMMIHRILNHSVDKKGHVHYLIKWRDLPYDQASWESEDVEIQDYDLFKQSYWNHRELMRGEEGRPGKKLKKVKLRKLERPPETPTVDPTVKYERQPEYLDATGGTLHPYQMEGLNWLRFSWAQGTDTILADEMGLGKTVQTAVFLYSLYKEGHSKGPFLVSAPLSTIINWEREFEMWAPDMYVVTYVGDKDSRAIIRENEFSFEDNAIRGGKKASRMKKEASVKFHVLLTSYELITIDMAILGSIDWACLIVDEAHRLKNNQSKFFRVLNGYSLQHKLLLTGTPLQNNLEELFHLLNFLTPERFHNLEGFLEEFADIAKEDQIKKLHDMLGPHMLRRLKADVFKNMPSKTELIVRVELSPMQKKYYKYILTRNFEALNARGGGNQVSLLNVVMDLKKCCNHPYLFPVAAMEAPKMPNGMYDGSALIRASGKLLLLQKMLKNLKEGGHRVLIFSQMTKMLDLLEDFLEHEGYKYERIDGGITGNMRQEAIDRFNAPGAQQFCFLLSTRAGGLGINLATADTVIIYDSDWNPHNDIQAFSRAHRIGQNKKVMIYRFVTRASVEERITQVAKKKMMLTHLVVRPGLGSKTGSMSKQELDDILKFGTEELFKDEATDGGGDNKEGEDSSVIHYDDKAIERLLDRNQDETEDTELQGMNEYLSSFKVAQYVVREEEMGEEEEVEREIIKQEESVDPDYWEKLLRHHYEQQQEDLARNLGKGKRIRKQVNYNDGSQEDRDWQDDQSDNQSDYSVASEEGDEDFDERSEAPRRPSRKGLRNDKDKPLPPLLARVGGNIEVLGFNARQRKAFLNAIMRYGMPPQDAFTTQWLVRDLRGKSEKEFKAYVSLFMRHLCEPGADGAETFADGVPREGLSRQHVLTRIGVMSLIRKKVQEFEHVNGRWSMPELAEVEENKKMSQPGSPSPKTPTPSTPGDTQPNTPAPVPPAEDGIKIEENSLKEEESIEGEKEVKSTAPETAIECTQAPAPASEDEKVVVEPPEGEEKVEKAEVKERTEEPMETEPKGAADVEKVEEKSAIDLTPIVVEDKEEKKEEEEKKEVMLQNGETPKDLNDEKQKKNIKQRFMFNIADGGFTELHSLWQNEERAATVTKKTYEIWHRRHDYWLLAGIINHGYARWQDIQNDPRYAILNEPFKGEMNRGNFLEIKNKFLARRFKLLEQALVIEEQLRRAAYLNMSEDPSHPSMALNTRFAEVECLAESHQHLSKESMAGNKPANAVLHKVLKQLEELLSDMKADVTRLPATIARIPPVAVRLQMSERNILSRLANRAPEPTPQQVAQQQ
UniProt Q13547: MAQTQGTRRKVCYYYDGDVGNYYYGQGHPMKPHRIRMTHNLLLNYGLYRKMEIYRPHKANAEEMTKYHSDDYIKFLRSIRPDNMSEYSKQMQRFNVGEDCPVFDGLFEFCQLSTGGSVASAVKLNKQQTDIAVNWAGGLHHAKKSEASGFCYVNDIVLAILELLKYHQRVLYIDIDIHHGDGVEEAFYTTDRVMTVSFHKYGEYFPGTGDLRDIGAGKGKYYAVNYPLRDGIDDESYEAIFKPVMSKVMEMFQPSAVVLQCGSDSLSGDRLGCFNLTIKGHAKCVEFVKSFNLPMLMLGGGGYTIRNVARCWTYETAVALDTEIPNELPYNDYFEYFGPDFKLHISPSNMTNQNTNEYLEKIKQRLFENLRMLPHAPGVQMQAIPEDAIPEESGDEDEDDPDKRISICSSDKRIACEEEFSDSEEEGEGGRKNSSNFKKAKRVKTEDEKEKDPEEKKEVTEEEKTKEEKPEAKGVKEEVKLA
UniProt Q9ULL5: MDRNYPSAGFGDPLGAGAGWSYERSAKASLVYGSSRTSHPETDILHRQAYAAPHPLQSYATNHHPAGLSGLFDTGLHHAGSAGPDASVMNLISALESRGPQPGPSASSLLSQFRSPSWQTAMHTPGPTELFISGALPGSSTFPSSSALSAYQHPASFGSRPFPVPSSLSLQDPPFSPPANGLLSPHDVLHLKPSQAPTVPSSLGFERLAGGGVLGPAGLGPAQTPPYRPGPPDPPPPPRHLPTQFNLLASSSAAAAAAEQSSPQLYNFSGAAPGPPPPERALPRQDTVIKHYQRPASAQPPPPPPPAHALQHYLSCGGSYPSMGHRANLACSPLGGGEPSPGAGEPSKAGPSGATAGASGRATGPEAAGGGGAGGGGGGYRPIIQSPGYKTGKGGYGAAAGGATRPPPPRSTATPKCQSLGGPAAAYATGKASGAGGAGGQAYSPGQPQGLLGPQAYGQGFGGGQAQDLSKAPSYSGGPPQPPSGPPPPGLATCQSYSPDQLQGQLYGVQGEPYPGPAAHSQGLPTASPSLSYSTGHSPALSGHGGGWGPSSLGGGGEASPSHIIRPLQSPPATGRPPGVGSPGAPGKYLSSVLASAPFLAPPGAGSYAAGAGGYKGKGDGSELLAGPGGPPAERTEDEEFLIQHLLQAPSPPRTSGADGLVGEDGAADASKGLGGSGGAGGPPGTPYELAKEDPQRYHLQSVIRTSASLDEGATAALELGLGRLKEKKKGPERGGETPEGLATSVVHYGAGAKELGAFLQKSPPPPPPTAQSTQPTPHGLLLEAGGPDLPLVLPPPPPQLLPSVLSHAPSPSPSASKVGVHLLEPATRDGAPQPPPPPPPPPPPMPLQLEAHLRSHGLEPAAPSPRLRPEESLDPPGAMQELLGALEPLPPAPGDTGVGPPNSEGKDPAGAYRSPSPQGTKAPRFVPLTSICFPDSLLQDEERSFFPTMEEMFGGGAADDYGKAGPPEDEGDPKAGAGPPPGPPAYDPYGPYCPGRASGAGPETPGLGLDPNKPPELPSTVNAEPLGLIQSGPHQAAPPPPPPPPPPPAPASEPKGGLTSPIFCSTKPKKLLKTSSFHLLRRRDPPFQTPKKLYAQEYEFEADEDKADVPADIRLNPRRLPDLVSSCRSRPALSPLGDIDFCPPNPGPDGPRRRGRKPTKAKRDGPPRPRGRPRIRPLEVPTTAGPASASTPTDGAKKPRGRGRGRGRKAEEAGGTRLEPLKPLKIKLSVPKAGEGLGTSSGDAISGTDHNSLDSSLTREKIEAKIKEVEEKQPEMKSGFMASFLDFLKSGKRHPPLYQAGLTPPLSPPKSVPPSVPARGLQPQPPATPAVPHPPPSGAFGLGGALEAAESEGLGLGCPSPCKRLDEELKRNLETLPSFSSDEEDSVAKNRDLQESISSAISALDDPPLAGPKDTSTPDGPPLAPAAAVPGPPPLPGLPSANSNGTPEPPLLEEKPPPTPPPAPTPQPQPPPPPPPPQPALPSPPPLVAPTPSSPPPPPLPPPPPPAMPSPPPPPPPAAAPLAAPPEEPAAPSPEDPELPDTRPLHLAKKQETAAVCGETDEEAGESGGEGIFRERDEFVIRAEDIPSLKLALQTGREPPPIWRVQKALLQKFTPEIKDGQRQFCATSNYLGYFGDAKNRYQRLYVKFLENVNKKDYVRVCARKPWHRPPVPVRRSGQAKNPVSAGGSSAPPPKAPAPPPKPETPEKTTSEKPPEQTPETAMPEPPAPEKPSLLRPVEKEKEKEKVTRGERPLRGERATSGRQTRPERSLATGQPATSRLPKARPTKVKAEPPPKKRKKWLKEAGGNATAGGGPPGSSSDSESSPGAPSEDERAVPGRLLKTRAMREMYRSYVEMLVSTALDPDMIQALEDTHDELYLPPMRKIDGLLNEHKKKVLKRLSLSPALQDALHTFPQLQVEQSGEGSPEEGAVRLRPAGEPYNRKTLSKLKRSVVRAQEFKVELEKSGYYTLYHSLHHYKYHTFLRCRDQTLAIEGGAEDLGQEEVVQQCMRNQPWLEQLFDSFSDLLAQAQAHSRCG

The target in this test is TTE-MBD2 (TY1-TY1-ER tagged human full length MBD2) (human) (UniProt Q9UBB5). Briefly: affinity purification with mass spectrometry; Ty1 immunoprecipitation (5 µg BB2 antibody, protein A/G plus-agarose beads) from 500 µg nuclear proteins of TTE-MBD2 MCF-7, over night at 4°C, triplicates; on-bead trypsin digestion, label-free quantitation (MaxQuant); WT MCF-7 as control.
Consider “B-cell lymphoma/leukemia 11B (from UniProt Q9C0K0 1-894)”, for which the binding entry is listed as “binds”.

Take “C-terminal-binding protein 2 (from UniProt P56545 1-445)”: the binding entry was “binds”. For the substance “Chromodomain-helicase-DNA-binding protein 3 (from UniProt Q12873 1-2000)”, the binding result is “binds”. Under “Chromodomain-helicase-DNA-binding protein 4 (from UniProt Q14839 1-1912)” stands “binds”. Under “Complement component 1 Q subcomponent-binding protein (from UniProt Q07021 74-282)” stands “binds”; under “Histone deacetylase 1 (from UniProt Q13547 1-482)”, “binds”. The value for “Histone deacetylase 2 (from UniProt Q92769 1-488)” was “binds”; that for “Histone-binding protein RBBP4 (from UniProt Q09028 1-425)” was “binds”. Turning to “Homeobox protein cut-like 1 (from UniProt P39880 1-1505)”, the binding entry is recorded as “binds”.

As to “MDS1 and EVI1 complex locus protein EVI1 (from UniProt Q03112 1-1230)”, the binding result was “binds”. Under “Proline-rich protein 12 (from UniProt Q9ULL5 1-2036)” stands “binds”. Under “Zinc finger and BTB domain-containing protein 7B (from UniProt O15156 1-539)” stands “binds”; under “Zinc finger protein castor homolog 1 (from UniProt Q86V15 1-1759)”, “binds”.

Values taken from paper PMC4057170.
